Some of the results follow. This data set is noisy: repeats of one test often differ as much as different tests do.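 Flies heterozygous for the ATM8 allele over a balancer chromosome carrying normal ATM were mated with each other on treated food. Parents laid eggs for 5–6 days and the young then developed for about 12 days, so both parents and larvae ate the compound. The read-out is the share of all emerged adults that carry two ATM8 copies, compared with 2% DMSO control vials. The paper called compounds neutral at 10–20% such offspring, harmful below 10%, and helpful above 20%.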 Square brackets hold non-standard residues; d marks the D form. Peptide text beside a SMILES is read from it. pGlu = O=C1CC[C@@H](C(=O)O)N1; Thz = O=C(O)[C@@H]1CSCN1
system: Drosophila melanogaster ATM8 (temperature-sensitive ATM allele); experiment: fraction of eclosed F1 progeny that are homozygous ATM8 (rescue of developmental lethality); higher = more rescue of ATM8 developmental lethality; extreme values may be limits of the assay; details: compound concentration applied to food 0.2 mM; 21 °C

| SMILES | fraction of eclosed F1 progeny that are homozygous ATM8 |
| --- | --- |
| CC[C@@H](C(=O)[C@@H](C)[C@@H](O)[C@H](C)CCc1ccc(C)c(O)c1C(=O)O)[C@H]1O[C@](CC)([C@H]2CC[C@](O)(CC)[C@H](C)O2)C[C@@H]1C | 0.0576 |
| CC(C)(C)c1ccc(C(O)CCCN2CCC(C(O)(c3ccccc3)c3ccccc3)CC2)cc1 (stereo not given) | 0.0526 |
| Cc1cc(=O)oc2c(O)c(O)ccc12 | 0.239 |
| CC12CCCC(O)(C1)C1CC(C)(C)C1CC2 (stereo not drawn) [beta-CARYOPHYLLENE ALCOHOL] | 0.135 |
| Cc1nc(-c2ccc(OCC(C)C)c(C#N)c2)sc1C(=O)O | 0.172 |
| O=c1ccn([C@@H]2O[C@H](COP(=O)(O)OP(=O)(O)OP(=O)(O)O)[C@@H](O)[C@H]2O)c(=O)[nH]1 | 0.027 |
| COc1cc(O)c2c(=O)cc(-c3ccc(O)cc3)oc2c1 | 0.279 |
| COc1ccc(CC2c3cc(OC)c(OC)cc3CC[N+]2(C)CCC(=O)OCCCCCOC(=O)CC[N+]2(C)CCc3cc(OC)c(OC)cc3C2Cc2ccc(OC)c(OC)c2)cc1OC (stereo not given) | 0.0417 |
| CC(=O)[C@H]1CC[C@H]2[C@@H]3CC=C4C[C@@H](O)CC[C@]4(C)[C@H]3CC[C@]12C | 0.0377 |
| CN(C)c1ccc(C(=C2C=CC(=[N+](C)C)C=C2)c2ccc(N(C)C)cc2)cc1 | 0.12 |
| CON | 0.0816 |
| CCN(CCO)CCCC(C)Nc1ccnc2cc(Cl)ccc12 (stereo not given) | 0.113 |
| CSc1ccc2c(c1)N(CCC1CCCCN1C)c1ccccc1S2 (stereo not given) | 0.1 |
| COc1cc(O)c2c(=O)c(O)c(-c3ccccc3)oc2c1 | 0.229 |
| CC/C(=C(/CC)c1ccc(O)cc1)c1ccc(O)cc1 | 0.0645 |
| CC1=C(/C=C/C(C)=C/C=C/C(C)=C\C(=O)O)C(C)(C)CCC1 | 0.15 |
| Cc1cc(-c2ccccc2)nnc1NCCN1CCOCC1 | 0.205 |
| NC(N)=Nc1nc(CSCC/C(N)=N/S(N)(=O)=O)cs1 | 0.037 |
| CN[C@@H](Cc1c[nH]c2ccccc12)C(=O)O | 0.163 |
| COC1(C)CCC2OC2(C)CCC2C1CC2(C)C (stereo not given) | 0.154 |
| CC(=O)NCCc1ccc(O)c(-c2c(O)c(O)c3c(c2O)C(=O)c2c(cc(O)c(C(=O)O)c2C(=O)O)C3=O)c1 | 0.279 |
| CN(C)[C@@H]1C(O)=C(C(N)=O)C(=O)[C@@]2(O)C(O)=C3C(=O)c4c(O)cccc4[C@@](C)(O)[C@H]3[C@H](O)[C@@H]12 | 0.174 |

Of the compounds above, these contain a carbonyl joined to an NH by a bond outside any ring:

| SMILES | fraction of eclosed F1 progeny that are homozygous ATM8 |
| --- | --- |
| CC(=O)NCCc1ccc(O)c(-c2c(O)c(O)c3c(c2O)C(=O)c2c(cc(O)c(C(=O)O)c2C(=O)O)C3=O)c1 | 0.279 |
| CN(C)[C@@H]1C(O)=C(C(N)=O)C(=O)[C@@]2(O)C(O)=C3C(=O)c4c(O)cccc4[C@@](C)(O)[C@H]3[C@H](O)[C@@H]12 | 0.174 |

Next part:

| SMILES | fraction of eclosed F1 progeny that are homozygous ATM8 |
| --- | --- |
| CCCCC1(COC(=O)CCC(=O)O)C(=O)N(c2ccccc2)N(c2ccccc2)C1=O | 0.143 |
| COc1cc(NC(C)CCCN)c2ncccc2c1 (stereo not given) | 0.3 |
| Nc1ccc([As](=O)(O)O)cc1 | 0.0667 |
| CC(C)(C)CC(C)(C)c1ccc(O)c(Cc2ccc(Cl)cc2Cl)c1 | 0.128 |
| CCN(CC)CCOC(=O)C(c1ccccc1)c1ccccc1 | 0.0213 |
| CCOC(=O)c1ccc(N)cc1 | 0.114 |
| COc1cc2occc2c2oc(=O)ccc12 | 0.069 |
| C[C@H]1[C@H](C)CC[C@]2(C(=O)O)CC[C@]3(C)C(=CC[C@@H]4[C@@]5(C)C[C@@H](O)[C@H](O)[C@@](C)(CO)[C@@H]5CC[C@]43C)[C@H]12 | 0.191 |
| CC(C)CCCC(C)C1CCC2C3=CCC4CC(O)CCC4(C)C3CCC21C (stereo not given) | 0.113 |
| C[C@]12CC[C@@H]3c4ccc(OS(=O)(=O)O)cc4CC[C@H]3[C@@H]1CCC2=O | 0.303 |
| COc1cccc(OC)c1C(=O)N[C@@H]1C(=O)N2[C@@H]1SC(C)(C)[C@@H]2C(=O)O | 0.0244 |
| Cc1ccc(S(=O)(=O)NC(=O)NN2CCCCCC2)cc1 | 0.103 |
| Cc1ccsc1/C=C/C1=NCCCN1C | 0.0698 |
| CCCCCCCCCCCCCCCCOP(=O)([O-])OCC[N+](C)(C)C | 0.324 |
| CN1C(=O)C(O)N=C(c2ccccc2)c2cc(Cl)ccc21 (stereo not given) | 0.161 |
| COc1cc(C=CC(=O)O)cc(OC)c1O | 0.385 |
| COc1cc(OC)c2c(=O)c(-c3ccc4c(c3)OCO4)coc2c1 | 0.161 |
| O=C(COc1ccc(Cl)cc1)N1CCN(Cc2ccc3c(c2)OCO3)CC1 | 0.189 |
| N[C@@H](Cc1ccc(O)cc1)C(=O)O | 0.103 |
| O=c1c(O)cc([C@H]2Oc3cc(O)cc(O)c3C[C@H]2O)cc2c([C@H]3Oc4cc(O)cc(O)c4C[C@H]3O)cc(O)c(O)c12 | 0.0667 |
| CCCCCCCCC(=O)NCc1ccc(O)c(OC)c1 | 0.186 |
| CCOc1ccc2nc3cc(N)ccc3c(N)c2c1 | 0.152 |

| SMILES | fraction of eclosed F1 progeny that are homozygous ATM8 |
| --- | --- |
| CCN(CC)CCNc1ccc(CO)c2sc3ccccc3c(=O)c12 | 0.104 |
| CC(=O)N(CC(O)CO)c1c(I)c(C(=O)NCCO)c(I)c(C(=O)NCC(O)CO)c1I (stereo not given) | 0.245 |
| CN1CCN(CC(=O)N2c3ccccc3C(=O)Nc3cccnc32)CC1 | 0.111 |
| Cc1ccc([C@@H]2O[C@H](CO)[C@@H](O)[C@H](O)[C@H]2O)cc1Cc1ccc(-c2ccc(F)cc2)s1 | 0.156 |
| COC(=O)Nc1nc2cc(Sc3ccccc3)ccc2[nH]1 | 0.037 |
| COc1ccccc1-c1cc(=O)c2c(OC)cccc2o1 | 0.06 |
| CC(C)NCC(O)COc1ccc(CC(N)=O)cc1 (stereo not given) | 0.0571 |
| NC(Cn1ccc(=O)c(O)c1)C(=O)O (stereo not given) | 0.405 |
| COc1cc(-c2ccc(/N=N/c3ccc4c(S(=O)(=O)O)cc(S(=O)(=O)O)c(N)c4c3O)c(OC)c2)ccc1/N=N/c1ccc2c(S(=O)(=O)O)cc(S(=O)(=O)O)c(N)c2c1O | 0.0789 |
| CN1CCN(C(=O)O[C@H]2c3nccnc3C(=O)N2c2ccc(Cl)cn2)CC1 | 0.204 |
| O=C1CC[C@@H](C(=O)N2CSC[C@H]2C(=O)O)N1 ([pGlu]-[Thz]-OH) | 0.093 |
| Oc1c(Cl)cc(Cl)c2cccnc12 | 0.0333 |
| c1ccc(-c2ccc(C(c3ccccc3)n3ccnc3)cc2)cc1 (stereo not given) | 0.333 |
| CN(C)CCC(c1ccc(Br)cc1)c1ccccn1 (stereo not given) | 0.316 |
| NC(=O)c1cc([N+](=O)[O-])cc([N+](=O)[O-])c1 | 0.233 |
| C[C@@](Cc1ccc(O)c(O)c1)(NN)C(=O)O | 0.12 |
| COc1ccc2c(c1O)-c1c(OC)c(OC)cc3c1[C@H](C2)N(C)CC3 | 0.0345 |
| CCOc1nc2cccc(C(=O)O)c2n1Cc1ccc(-c2ccccc2-c2nnn[nH]2)cc1 | 0.037 |
| O=c1[nH]cnc2nc[nH]c12 | 0.325 |
| Nc1ncnc2c1ncn2[C@@H]1O[C@H](CO)[C@@H](O)[C@@H]1O | 0.261 |
| C[C@H]1C[C@H]2[C@@H]3CCC4=CC(=O)C=C[C@]4(C)[C@@]3(F)[C@@H](O)C[C@]2(C)[C@@]1(O)C(=O)COP(=O)(O)O | 0.0566 |

Source: the supplement of paper PMC5770031
